# From PubChem BioAssay AID651640 (Broad Institute, 2012)
# Values joined by “and” are separate entries in the source; they are usually repeats but may differ in a detail not shown here. Equal entries are not always repeated. Out of some 350,000 compounds screened, about 6,000 (1.7%) were called active. Inconclusive results, whose numbers are uncertain, are shown with a selection of clear calls. Rule as the data show it: active = CPE inhibition above about 20% (passing the limit was not always enough); inconclusive = no clear call, values can overlap the other calls; tested in BHK-21 cells. Where a structure was tested more than once in an assay, its records may differ in their call.
# Assay: protection of cells from dengue 2 killing – plate reader, single concentration, primary screen (AID 651640);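 also: 0% = median of neutral control wells and 100% = median of positive control wells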
# Conditions: DENV2-infected cells, cytopathic effect rescue, at 9.99 µM, stronger effect = higher value
row,Compound,CPE inhibition
1,C[C@@H]1CCCCO[C@@H](CN(C)C(=O)c2ccncc2)[C@@H](C)CN([C@H](C)CO)C(=O)c2cc(NC(=O)Cc3ccccc3)ccc2O1,active: 23.9%
2,CCCCNC(=O)c1nc(C2CCN(S(=O)(=O)c3ccccc3)CC2)oc1-c1cccc(C(F)(F)F)c1,inconclusive: 34.8%
3,COc1ccc(S(=O)(=O)N2CCOCC2)cc1NC(=O)CSc1nc(C)c(C)c(C)n1,inconclusive: 22.3%
4,COc1ccccc1N1CCN(C(=O)c2cc3cc(C)ccc3[nH]2)CC1,inconclusive: 25.8%
5,CCNC(=O)[C@@H]1[C@@H](CO)[C@@H]2Cn3c(ccc(-c4ccccc4)c3=O)[C@@H]2N1Cc1ccc2c(c1)OCO2,inconclusive: 56.8%
6,Cc1ccc(NC(=O)N2CCC(NC(=O)c3cccc(F)c3)CC2)cc1,inconclusive: 36.1%
7,Cc1ccccc1NC(=O)Nc1ccc2c(c1)C(=O)N(C)[C@@H]1CC[C@H](CC(=O)NCC3CC3)O[C@H]1CO2,inconclusive: 38.4%
8,CCCC(=O)Nc1ccc2c(c1)C(=O)N(C)[C@H]1CC[C@H](CC(=O)Nc3ccccc3)O[C@@H]1CO2,inactive: -3.55%
9,CN(C)c1ccc(CNS(=O)(=O)c2ccc3c(c2)C(C)(C)C(=O)N3C)cc1,active: 48.5%
10,COc1ccc2c3c(n(C)c2c1)[C@H](CO)N(C(=O)C1CCOCC1)CC31CN(C(=O)C2CC2)C1,active: 21.9%
11,Cc1nn2c(C)c(C(=O)Nc3ccccc3)cnc2c1-c1ccccc1,active: 41.7%
12,CCC1Cc2[nH]c(=S)[nH]c(=O)c2C(c2ccc(Cl)cc2)O1 (centres undefined),inconclusive: 72.8%
13,CCCNC(=O)N1C[C@@H](C)[C@@H](OC)CN(C)C(=O)c2ccc(NS(=O)(=O)CC(F)(F)F)cc2OC[C@@H]1C,inconclusive: 22.2%
14,CC(C)(C)OC(=O)N1CCCN(C(=O)c2ccc(Cl)cc2)CC1,inconclusive: 37.7%
15,CS(=O)(=O)c1ccc(C(=O)N2CCN(C(=O)c3ccco3)CC2)cc1,inactive: 10.3%
16,COc1ccc(-c2cnc3c(c2)C(=O)N([C@H](C)CO)C[C@H](C)[C@@H](CN(C)Cc2ccccn2)O3)cc1,inconclusive: 39.4%
17,COc1ccc([N+](=O)[O-])cc1N(CC(=O)NC1CCCC1)S(C)(=O)=O,inactive: -4.64%
18,C[C@@H]1CN([C@@H](C)CO)C(=O)c2cc(NC(=O)Nc3ccc4c(c3)OCO4)ccc2O[C@@H](C)CCCCO[C@H]1CN(C)C(=O)Cc1ccccc1,inconclusive: 84.7%
19,CC(NC(=O)CSc1ccc(S(=O)(=O)N2CCOCC2)cn1)c1ccc(Cl)cc1Cl (centres undefined),inactive: 7.7%
20,Cc1ccccc1-c1cc2nc(-c3ccc([N+](=O)[O-])cc3)cc(=O)n2[nH]1,inconclusive: 60.5%
21,COc1ccc(-n2nc(C(=O)NCC(=O)N3CCC(C(N)=O)CC3)c3ccccc3c2=O)cc1OC,inconclusive: 58.1%
22,Nc1[nH]c(C(=O)c2ccccc2)c(-c2ccc(Cl)cc2)c1C(=O)c1c[nH]c2ccccc12,active: 27.7%
23,Cc1ccc(C(=O)Nc2ccccc2C(=O)N2CCCCCC2)cc1,inconclusive: 25%

# Four of the compounds above, with tabs:
row	Compound	CPE inhibition
14	CC(C)(C)OC(=O)N1CCCN(C(=O)c2ccc(Cl)cc2)CC1	inconclusive: 37.7%
15	CS(=O)(=O)c1ccc(C(=O)N2CCN(C(=O)c3ccco3)CC2)cc1	inactive: 10.3%
16	COc1ccc(-c2cnc3c(c2)C(=O)N([C@H](C)CO)C[C@H](C)[C@@H](CN(C)Cc2ccccn2)O3)cc1	inconclusive: 39.4%
17	COc1ccc([N+](=O)[O-])cc1N(CC(=O)NC1CCCC1)S(C)(=O)=O	inactive: -4.64%

# (list continues)

row,Compound,CPE inhibition
1,CN(C)C(=O)[C@H]1[C@H](CO)[C@H]2Cn3c(ccc(-c4ccccc4)c3=O)[C@@H]1N2CCc1ccccc1,inactive: -2.84%
2,Cc1ccc(S(=O)(=O)N(C)C[C@H]2Oc3ccc(NS(=O)(=O)c4ccc(F)cc4)cc3C(=O)N([C@@H](C)CO)C[C@@H]2C)cc1,inconclusive: 23%
3,CCCCN1CC(N2CCN(Cc3cccc(C)c3)CC2)CS1(=O)=O (centres undefined),inconclusive: 32.9%
4,CCCc1cn(CC[C@@H]2CC[C@@H](NC(=O)C3CCOCC3)[C@H](CO)O2)nn1,inconclusive: 33%
5,C[C@H](CO)N1C[C@H](C)[C@@H](CN(C)S(=O)(=O)c2ccc(F)cc2)Oc2ccc(N(C)C)cc2CC1=O,inactive: 2.21%
6,C[C@@H]1CCCCO[C@@H](CN(C)C(=O)c2ccncc2)[C@H](C)CN([C@H](C)CO)C(=O)c2cc(NC(=O)Cc3ccccc3)ccc2O1,inactive: 3.04%
7,Cc1nn(C)cc1-c1n[nH]c(=S)n1-c1ccc(Cl)cc1,inconclusive: 20.7%
8,CCOC(=O)/C(C#N)=C/Nc1ccccc1NS(=O)(=O)c1ccc2c(c1)OCCO2,inconclusive: 30.6%
9,COc1ccc(C(=O)CN2C(=O)c3ccccc3S2(=O)=O)cc1Br,inconclusive: 54.7%
10,O=C(NCC(=O)N1CCN(c2ccccc2O)CC1)c1ccc(Br)o1,inactive: -0.013%
11,CCCS(=O)(=O)N1CCCC(C(=O)NCCc2cccc(C)c2)C1 (centres undefined),active: 26.7%
12,CCC(=O)N1CC(=O)N2[C@H](CO)[C@H](c3ccc(C#Cc4cccc(F)c4)cc3)[C@@H]2C1,inactive: 6.46%
13,Cc1ccc(S(=O)(=O)Nc2ccc3c(c2)C(=O)N([C@@H](C)CO)C[C@@H](C)[C@@H](CN(C)Cc2ccc4c(c2)OCO4)OCCCC[C@@H](C)O3)cc1,inconclusive: 42.1%
14,CC(=O)C1=CCC(c2cccc(Cl)c2)N(S(=O)(=O)c2ccc(C)cc2)C1 (centres undefined),inconclusive: 63.8%
15,COCC(=O)N1CCCCN2[C@H](CO)[C@@H](c3ccc(-c4ccc(C)cc4)cc3)[C@@H]2C1,inconclusive: 34.3%
16,C[C@H]1CCCCO[C@H](CN(C)S(=O)(=O)c2ccc(Cl)cc2)[C@@H](C)CN([C@@H](C)CO)C(=O)c2cc(NS(=O)(=O)c3cccs3)ccc2O1,inconclusive: 31.8%
17,CN1CCN(C(=O)C[C@H]2CC[C@@H]3[C@H](COc4ccc(NC(=O)C5CCOCC5)cc4C(=O)N3C)O2)CC1,inconclusive: 28.9%
18,Cc1noc(C)c1NC(=O)N(C)C[C@H]1OCCCC[C@@H](C)Oc2ccc(NS(=O)(=O)c3ccccc3)cc2C(=O)N([C@@H](C)CO)C[C@@H]1C,inactive: -10.6%
19,C[C@@H]1CN([C@@H](C)CO)C(=O)c2cc(N(C)C)ccc2O[C@H]1CN(C)Cc1ccccc1,inconclusive: 45.8%
20,CC(/C=C1\SC(=S)N(NS(=O)(=O)c2ccccc2)C1=O)=C\c1ccccc1,inconclusive: 55.2%
21,CC=Cc1ccc2n(c1=O)C[C@@H]1[C@@H](CO)[C@H](C(=O)Nc3ccc(-c4ccccc4)cc3)[C@H]2N1CC (mixture of isomers),inactive: 7.34%
22,O=C(C[C@H]1C[C@H]2c3cc(NC(=O)C4CCOCC4)ccc3O[C@H]2[C@H](CO)O1)NCCc1ccccc1,inactive: 0.975%
23,C[C@@H]1CN([C@@H](C)CO)C(=O)CCCn2cc(nn2)CO[C@H]1CN(C)S(=O)(=O)c1ccc(Oc2ccccc2)nc1,inconclusive: 28.8%

row,Compound,CPE inhibition
1,Cc1cccc(S(=O)(=O)N2CC[C@@H]3[C@H]2c2cc(-c4ccccc4F)ccc2N[C@@H]3CO)c1,active: 40%
2,O=C(Cn1c(=O)oc2cc(S(=O)(=O)N3CCc4ccccc43)ccc21)NC1CCCC1,inconclusive: 23.1%
3,CC1(C)CC(=O)C2=C(C1)Nc1cc3c(cc1C2c1ccc2c(c1)OCO2)OCO3 (centres undefined),active: 38.2%
4,CCc1ccc(Oc2coc3cc(O)ccc3c2=O)cc1,inconclusive: 30.1%
5,COc1ccc(-c2ccc3c(c2)[C@@H]2[C@@H](CCN2S(=O)(=O)C2=NC(C)C=N2)[C@@H](CO)N3C)cc1 (some centres undefined),inconclusive: 27.8%
6,C[C@H](CO)N1C[C@H](C)[C@H](CN(C)C(=O)Nc2ccc(C(F)(F)F)cc2)Oc2ncc(/C=C/c3ccccc3)cc2C1=O,inconclusive: 28%
7,COc1ccc(NC(=O)Nc2ccc3c(c2)C(=O)N([C@H](C)CO)C[C@@H](C)[C@@H](CN(C)C(=O)C2CCCCC2)OCCCC[C@H](C)O3)cc1,active: 45.5% and inactive: -9.68%
8,Cc1ccc(N2C(=O)CC(NNC(=O)c3cccc(S(=O)(=O)N4CCCC4)c3)C2=O)cc1 (centres undefined),inconclusive: 80%
9,COc1ccc(C(=O)Nc2ccc(Nc3ccccc3)cc2)cc1[N+](=O)[O-],active: 39.8%
10,CO[C@H]1CN(C)C(=O)c2ccc(NC(=O)c3cnccn3)cc2OC[C@H](C)NC[C@H]1C,active: 53.2%
11,O=C(C[C@H]1CC[C@@H](NC(=O)C2CC2)[C@@H](CO)O1)NC1CCC1,inconclusive: 29.1%
12,O=C(NCCC(=O)N1CCc2ccccc21)c1ccccc1Cl,inconclusive: 40%
13,COC(=O)c1sccc1NC(=O)Nc1cccc(C)c1C,inconclusive: 27.7%
14,COc1ccc(OC)c(C2C3=C(CC(C)(C)CC3=O)Nc3nnnn32)c1 (centres undefined),inconclusive: 27.6%
15,CCCCCCCCCCCCN1[C@@H](CC(=O)O)c2cc(C(F)(F)F)ccc2S1(=O)=O,inconclusive: 36.5%
16,Cc1ccc(S(=O)(=O)N2CCN(CCc3ccccc3)CC2)c(C)c1,inconclusive: 26.6%
17,N#Cc1cccc(NC(=O)CSc2sc3c(O)cc(=O)[nH]c3c2C#N)c1,inactive: 6.42%
18,C[C@@H]1CN([C@H](C)CO)C(=O)c2cc(C#Cc3ccccc3)cnc2O[C@H]1CN(C)S(=O)(=O)c1ccccc1F,inconclusive: 50.3%
19,COc1cc(/C=N/NC(=O)COc2ccccc2[N+](=O)[O-])ccc1OC(=O)c1ccco1,active: 26.6%
20,COc1cccc(C(=O)NCCS(=O)(=O)N2CCCC(C)C2)c1 (centres undefined),inconclusive: 31.2%
21,Cc1noc(C)c1NC(=O)N(C)C[C@@H]1Oc2ccc(N(C)C)cc2C(=O)N([C@@H](C)CO)C[C@@H]1C,inactive: 15.2%
22,CC[N+]1(CC(O)COC2CC(C)CC(C)(C)C2)CCOCC1 (centres undefined),inactive: 4.81%
23,C[C@H](CO)N1C[C@H](C)[C@H](CN(C)S(=O)(=O)c2ccccc2F)Oc2cc(-c3ccccc3)ccc2S1(=O)=O,inactive: -6.53%
